Molecules are shown by their SMILES. Counter-ions that a name gives are not always drawn.

Holding throughout (assay type): in vivo
For series [1], the system named is BALB/cJRj mice. Put plainly: EPM with optogenetic inhibition of mPFC terminals in the DRN (CaMKII-ArchT). The settings on record: CaMKII-ArchT-mPFC injected mice; systemic RS67333 1.5 mg/kg or diazepam 1.5 mg/kg. On the procedure:
The EPM is a widely used behavioral assay for rodents and it has been validated to assess the anti-anxiety effects of pharmacological agents (A-S11). This test was performed as described by (A-S1). The maze is a plus-cross-shaped apparatus, with two open arms and two arms closed by walls linked by a central platform 50 cm above the floor. Mice were individually put in the center of the maze facing an open arm and were allowed to explore the maze during 5 min for the behavioral consequences of an acute systemic administration or mPFC infusion and during 6 min for the optogenetic experiments. The time spent in and the numbers of entries into the open arms were used as an anxiety index. All parameters were measured using a videotracker (EPM3C, Bioseb, Vitrolles, France).
To target opsin expression selectively to cortical glutamatergic terminals in the DRN, AAV5-CaMKIIα-ChR2-enhanced yellow fluorescent protein (eYFP), AAV5-CaMKII-ArchT-green fluorescent protein (GFP) or AAV5-CaMKII-eYFP, obtained from Karl Deisseroth and Ed Boyden (UNC Vector Core, NC, USA) were bilaterally injected into the mPFC (in mm from bregma, A=+2.10, L=±0.50, V=−2.60). Mice injected with AAV5-CamKII-eYFP were used as control.
BALB/cJRj mice were surgically implanted with fiber optics targeted to the DRN (in mm from bregma, A=−4.50, L=+1.20, V=−4.0, angle 15°). […]

In series [2] the test system is BALB/cJRj mice. Nature of the series: Novelty suppressed feeding (NSF), acute anxiolytic-like effect. On the procedure:
RS67333 (1.5 mg/kg, i.p.), diazepam (1.5 mg/kg, i.p.), fluoxetine (18 mg/kg, i.p.) were injected 45 min before testing in the Elevated Plus Maze (EPM), the Novelty Suppressed Feeding (NSF) or the Open Field (OF) in three independent cohorts of male BALB/cJRj mice.
To ensure the selectivity of the anxiolytic-like effects of RS67333, in a new cohort of male BALB/cJRj mice, GR125487 (1.0 mg/kg, i.p.) dissolved in 0.9% NaCl solution, was injected 15 minutes before RS67333 administration (1.5 mg/kg, i.p.). EPM or NSF occurred 45 min after RS67333 administration (A-S1). Behavioral consequences of the co-administration of GR125487+RS67333 were compared to RS67333 alone, diazepam (1.5 mg/kg, i.p.) fluoxetine (18 mg/kg, i.p.) and vehicle groups (0.9% saline solution, i.p.).
For mPFC drug infusion, two bilateral cannulae (75 μm-diameter silica capillary tubing inserted in 27G stainless steel catheter) were implanted in the mPFC [stereotaxic coordinates in mm from bregma: A=+2.10, L=±0.50, V=−2.60, A, anterior; L, lateral; and V, ventral, according to (A-S10)] under anesthesia (chloral hydrate, 400 mg/kg, i.p.). […] Diazepam (1.5 mg/kg) was used as a positive control.
The NSF is a conflict test that elicits competing motivations: the drive to eat and the fear of venturing into the center of a brightly lit arena. The latency to begin eating is used as an index of anxiety/depression-like behavior, because classical anxiolytic drugs as well as chronic antidepressants decrease this measure. The NSF test was carried out during a 10 min period as previously described (A-S12). Briefly, the testing apparatus consisted of a plastic box (50×50×20 cm), the floor of which was covered with approximately 2 cm of wooden bedding. Twenty-four hours prior to behavioral testing, all food was removed from the home cage. At the time of testing, a single pellet of food (regular chow) was placed on a white paper platform positioned in the center of the box. Each animal was placed in a corner of the box, and a stopwatch was immediately started. The latency to eat (defined as the mouse sitting on its haunches and biting the pellet with the use of forepaws) was timed. Immediately afterwards, the animal was transferred to its home cage, and the amount of food consumed by the mouse in the subsequent 5 min was measured, serving as a control for change in appetite as a possible confounding factor.

In series [3] the test system is 129S6/SvEv mice. Put plainly: Open field (OF) after CFC. The protocol:
This chronic CORT elevation dysregulates the hypothalamic-pituitary-adrenal axis (HPA) in a manner similar to that observed in clinical depression. The dose and duration of CORT treatment was selected based on previous studies. CORT (35 μg/ml, equivalent to about 5 mg/kg/day) dissolved in 0.45% hydroxypropyl-o-cyclodextrin (0-CD) or vehicle (VEH) (0.45% j-CD) was available ad libitum in the drinking water in opaque bottles to protect it from light. VEH- and CORT-treated water was changed every 3 days to prevent possible degradation. Contextual Fear Conditioning (CFC): A 3-shock CFC procedure was administered as previously published. Briefly, mice were placed into context A and administered 3 2-s shocks (0.75 mA) at 180 s, 240 s or 300 s following placement into context A. Mice were removed from the context 15 s following the termination of shock (at 317 s). For context retrieval, mice were placed back into context A for 300 s. Electrophysiology: Electrophysiology was conducted as previously described. Statistical Analysis: Results from data analyses are expressed as means±SEM. Alpha was set to 0.05 for all analyses. Data were analyzed using GraphPad Prism v7.0 or v8.0. For all experiments, unless otherwise noted, one- or two-way ANOVAs with repeated-measures were applied to the data as appropriate. […] Videos were scored using ANY-maze behavior tracking software (Stoelting, Wood Dale, Ill.). […]

The mark [4] stands for this setting: i.p. 45 min before testing, RS67333 1.5, diazepam 1.5 mg/kg.

Take `CN1C(=O)CN=C(c2ccccc2)c2cc(Cl)ccc21` [diazepam, Diazepam hydrochloride]: the “locomotor activity (EPM), OFF epoch” value in series [1] is “without affecting locomotor activity”. The “home-cage food consumption (NSF)” value in series [2] (setting [4]) is given as “without affecting the home-cage food consumption”.
Take `COc1[nH]c2ccc(F)cc2c1C(=O)OCC1CCN(CCNS(C)(=O)=O)CC1.NS(=O)(=O)O` [GR125487, 5-Fluoro-2-methoxy-[1-[2-[(methylsulfonyl)amino]ethyl]-4-piperidinyl]-1H-indole-3-methylcarboxylate sulfamate]: in series [2] (GR125487 1 mg/kg i.p. 15 min before RS67333 1.5 mg/kg i.p.), the “food consumption (NSF)” value was “without affecting food consumption”.
On to `CCCCN1CCC(CCC(=O)c2cc(Cl)c(N)cc2OC)CC1.Cl` [RS-67,333, 1-(4-amino-5-chloro-2-methoxyphenyl)-3-[1(n-butyl)-4-piperidinyl]-1-propanone HCl], for which the “locomotor activity (EPM), OFF epoch” value in series [1] was “without affecting locomotor activity”. Further, the “distance travelled in the OF” value in series [3] (female 129S6/SvEv, 1.5 or 10 mg/kg) was “did not alter”. In addition, the “distance travelled in the OF vs saline” value in series [3] (male 129S6/SvEv, 10 mg/kg) is recorded as “comparable distance”. The “home-cage food consumption (NSF)” value in series [2] (setting [4]) and in series [2] (intra-mPFC infusion of RS67333 45 min before testing) was “without affecting the home-cage food consumption” in each case. In series [2] (single dose 1.5 mg/kg, 72 hours after the injection), the “consumption of food in a familiar environment (NSF)” value is reported as “without affecting the consumption of food”.

The values above are taken from US20220031684A1, “PROPHYLACTIC EFFICACY OF SEROTONIN 4 RECEPTOR AGONISTS AGAINST STRESS” (THE TRUSTEES OF COLUMBIA UNIVERSITY IN THE CITY OF NEW YORK, priority 2019, published 2022).
